Assay results published in patent publication US11541107B2, “Peptides and T cells for use in immunotherapeutic treatment of various cancers” (Immatics Biotechnologies GmbH, priority 2015, dated 2023).

System: source genes of the peptides
Assay: Target coverage of source genes based on TCGA Research Network expression data
Parameters: species or system human
Details: for Target coverage, over-expression category of source gene, SARC: Sarcoma (N = 263); for Target coverage, over-expression category of source gene, SARC (N = 263): Sarcoma; for Target coverage, over-expression category of source gene, STAD (N = 415): Stomach adenocarcinoma; for Target coverage, over-expression category of source gene, TGCT (N = 156): Testicular germ cell tumors; for Target coverage, over-expression category of source gene, THYM (N = 120): Thymoma; for Target coverage, over-expression category of source gene, UCS (N = 57): Uterine carcinosarcoma; for Target coverage, over-expression category of source gene, UCEC (N = 546): Uterine corpus endometrial carcinoma; for Target coverage, over-expression category of source gene, SKCM: Skin cutaneous melanoma (N = 473); for Target coverage, over-expression category of source gene, STAD: Stomach adenocarcinoma (N = 415); for Target coverage, over-expression category of source gene, TGCT: Testicular germ cell tumors (N = 156); for Target coverage, over-expression category of source gene, THYM: Thymoma (N = 120); for Target coverage, over-expression category of source gene, UCS: Uterine carcinosarcoma (N = 57); for Target coverage, over-expression category of source gene, UCEC: Uterine corpus endometrial carcinoma (N = 546); for Target coverage, over-expression category of source gene, THCA (N = 513): Thyroid carcinoma; for Target coverage, over-expression category of source gene, UVM (N = 80): Uveal melanoma
[1] = cutoff more than 2-fold above highest 75% percentile of normal organs

“377: peptide found in RPTOR (gene looked up) (QYTPHSHQF; listed as Homo sapiens) [compound 377]” was tested, and the “Target coverage, over-expression category of source gene, SARC” value was “C (>=5% of tumors above the cutoff, but <20%)”.

With “180: peptide found in OXTR (gene looked up) (KYLQVVGMF; listed as Homo sapiens) [compound 180]” the “Target coverage, over-expression category of source gene, SARC (N = 263)” value [1] was “C (>=5% of tumors above the cutoff, but <20%)”, the “Target coverage, over-expression category of source gene, STAD (N = 415)” value [1] was “C (>=5% of tumors above the cutoff, but <20%)” and the “Target coverage, over-expression category of source gene, TGCT (N = 156)” value [1] was “C (>=5% of tumors above the cutoff, but <20%)”. The “Target coverage, over-expression category of source gene, THYM (N = 120)” value [1] was “C (>=5% of tumors above the cutoff, but <20%)”, the “Target coverage, over-expression category of source gene, UCS (N = 57)” value [1] was “C (>=5% of tumors above the cutoff, but <20%)” and the “Target coverage, over-expression category of source gene, UCEC (N = 546)” value [1] was “C (>=5% of tumors above the cutoff, but <20%)”.

With “391: peptide found in CDK1 (gene looked up) (LYQILQGIVF; listed as Homo sapiens) [compound 391]” the “Target coverage, over-expression category of source gene, SARC” value was “B (>=20% of tumors above the cutoff, but <50%)”, the “Target coverage, over-expression category of source gene, SKCM” value was “C (>=5% of tumors above the cutoff, but <20%)” and the “Target coverage, over-expression category of source gene, STAD” value was “B (>=20% of tumors above the cutoff, but <50%)”. For the same substance, the “Target coverage, over-expression category of source gene, TGCT” value was “C (>=5% of tumors above the cutoff, but <20%)”, the “Target coverage, over-expression category of source gene, THYM” value was “B (>=20% of tumors above the cutoff, but <50%)” and the “Target coverage, over-expression category of source gene, UCS” value was “B (>=20% of tumors above the cutoff, but <50%)”. The “Target coverage, over-expression category of source gene, UCEC” value was “B (>=20% of tumors above the cutoff, but <50%)”.

In the case of “100: peptide found in KIF20A (gene looked up) (VYIESRIGTSTSF; listed as Homo sapiens) [compound 100]”, the “Target coverage, over-expression category of source gene, TGCT (N = 156)” value [1] was “A (>=50% of tumors above the cutoff)” and the “Target coverage, over-expression category of source gene, UCS (N = 57)” value [1] was “A (>=50% of tumors above the cutoff)”.

In the case of “244: peptide found in MMP13 (gene looked up) (VHFEDTGKTLLF; listed as Homo sapiens) [compound 244]”, the “Target coverage, over-expression category of source gene, STAD (N = 415)” value [1] was “C (>=5% of tumors above the cutoff, but <20%)”, the “Target coverage, over-expression category of source gene, TGCT (N = 156)” value [1] was “C (>=5% of tumors above the cutoff, but <20%)” and the “Target coverage, over-expression category of source gene, THYM (N = 120)” value [1] was “C (>=5% of tumors above the cutoff, but <20%)”. For the same substance, the “Target coverage, over-expression category of source gene, THCA (N = 513)” value [1] was “C (>=5% of tumors above the cutoff, but <20%)” and the “Target coverage, over-expression category of source gene, UCS (N = 57)” value [1] was “C (>=5% of tumors above the cutoff, but <20%)”.

In the case of “347: peptide found in CSNK2A2 (gene looked up) (VYAEVNSL; listed as Homo sapiens) [compound 347]”, the “Target coverage, over-expression category of source gene, UVM (N = 80)” value [1] was “C (>=5% of tumors above the cutoff, but <20%)”.

“409: peptide found in RRM2 (gene looked up) (YFISHVLAF; listed as Homo sapiens) [compound 409]” was tested, and the “Target coverage, over-expression category of source gene, SARC” value was “C (>=5% of tumors above the cutoff, but <20%)”, the “Target coverage, over-expression category of source gene, SKCM” value was “C (>=5% of tumors above the cutoff, but <20%)” and the “Target coverage, over-expression category of source gene, STAD” value was “B (>=20% of tumors above the cutoff, but <50%)”. For the same substance, the “Target coverage, over-expression category of source gene, TGCT” value was “B (>=20% of tumors above the cutoff, but <50%)”, the “Target coverage, over-expression category of source gene, THYM” value was “B (>=20% of tumors above the cutoff, but <50%)” and the “Target coverage, over-expression category of source gene, UCEC” value was “C (>=5% of tumors above the cutoff, but <20%)”.

“344: peptide found in BUB1 (gene looked up) (EYNSDLHQF; listed as Homo sapiens) [compound 344]” was tested, and the “Target coverage, over-expression category of source gene, STAD (N = 415)” value [1] was “A (>=50% of tumors above the cutoff)”, the “Target coverage, over-expression category of source gene, TGCT (N = 156)” value [1] was “A (>=50% of tumors above the cutoff)” and the “Target coverage, over-expression category of source gene, UCS (N = 57)” value [1] was “A (>=50% of tumors above the cutoff)”.

For “398: peptide found in KIF2C (gene looked up) (IYNGKLFDLL; listed as Homo sapiens) [compound 398]”, the “Target coverage, over-expression category of source gene, SARC” value was “B (>=20% of tumors above the cutoff, but <50%)”, the “Target coverage, over-expression category of source gene, SKCM” value was “B (>=20% of tumors above the cutoff, but <50%)” and the “Target coverage, over-expression category of source gene, STAD” value was “B (>=20% of tumors above the cutoff, but <50%)”. The “Target coverage, over-expression category of source gene, TGCT” value was “A (>=50% of tumors above the cutoff)”, the “Target coverage, over-expression category of source gene, THYM” value was “A (>=50% of tumors above the cutoff)” and the “Target coverage, over-expression category of source gene, UCS” value was “A (>=50% of tumors above the cutoff)”. The “Target coverage, over-expression category of source gene, UCEC” value was “B (>=20% of tumors above the cutoff, but <50%)”.

In the case of “253: peptide found in NPFFR2 (gene looked up) (IYGFFNENF; listed as Homo sapiens) [compound 253]”, the “Target coverage, over-expression category of source gene, SARC (N = 263)” value [1] was “C (>=5% of tumors above the cutoff, but <20%)”, the “Target coverage, over-expression category of source gene, TGCT (N = 156)” value [1] was “C (>=5% of tumors above the cutoff, but <20%)” and the “Target coverage, over-expression category of source gene, THYM (N = 120)” value [1] was “C (>=5% of tumors above the cutoff, but <20%)”. For the same substance, the “Target coverage, over-expression category of source gene, THCA (N = 513)” value [1] was “C (>=5% of tumors above the cutoff, but <20%)” and the “Target coverage, over-expression category of source gene, UCS (N = 57)” value [1] was “C (>=5% of tumors above the cutoff, but <20%)”.

“251: peptide found in NCAPG (gene looked up) (VYTKALSSL; listed as Homo sapiens) [compound 251]” was tested, and the “Target coverage, over-expression category of source gene, SARC (N = 263)” value [1] was “A (>=50% of tumors above the cutoff)”, the “Target coverage, over-expression category of source gene, TGCT (N = 156)” value [1] was “A (>=50% of tumors above the cutoff)” and the “Target coverage, over-expression category of source gene, THYM (N = 120)” value [1] was “A (>=50% of tumors above the cutoff)”. For the same substance, the “Target coverage, over-expression category of source gene, UCS (N = 57)” value [1] was “A (>=50% of tumors above the cutoff)”.

For “413: peptide found in MST1R (gene looked up) (NYLLYVSNF; listed as Homo sapiens) [compound 413]”, the “Target coverage, over-expression category of source gene, STAD” value was “C (>=5% of tumors above the cutoff, but <20%)”.

With “110: peptide found in FANCD2 (gene looked up) (SYPKIIEEF; listed as Homo sapiens) [compound 110]” the “Target coverage, over-expression category of source gene, SARC (N = 263)” value [1] was “C (>=5% of tumors above the cutoff, but <20%)”, the “Target coverage, over-expression category of source gene, STAD (N = 415)” value [1] was “C (>=5% of tumors above the cutoff, but <20%)” and the “Target coverage, over-expression category of source gene, TGCT (N = 156)” value [1] was “A (>=50% of tumors above the cutoff)”.

“162: peptide found in IFNG (gene looked up) (KYTSYILAF; listed as Homo sapiens) [compound 162]” was tested, and the “Target coverage, over-expression category of source gene, SARC (N = 263)” value [1] was “C (>=5% of tumors above the cutoff, but <20%)”, the “Target coverage, over-expression category of source gene, STAD (N = 415)” value [1] was “C (>=5% of tumors above the cutoff, but <20%)” and the “Target coverage, over-expression category of source gene, THYM (N = 120)” value [1] was “C (>=5% of tumors above the cutoff, but <20%)”. For the same substance, the “Target coverage, over-expression category of source gene, UCEC (N = 546)” value [1] was “C (>=5% of tumors above the cutoff, but <20%)”.

“172: peptide found in MMP10 (gene looked up) (VFIFKGNEF; listed as Homo sapiens) [compound 172]” was tested, and the “Target coverage, over-expression category of source gene, PRAD (N = 498)” value (Prostate adenocarcinoma, cutoff more than 2-fold above highest 75% percentile of normal organs) was “C (>=5% of tumors above the cutoff, but <20%)”, the “Target coverage, over-expression category of source gene, UCS (N = 57)” value [1] was “C (>=5% of tumors above the cutoff, but <20%)” and the “Target coverage, over-expression category of source gene, UCEC (N = 546)” value [1] was “C (>=5% of tumors above the cutoff, but <20%)”.

With “129: peptide found in MOB1A (gene looked up) (KYIDYLMTW; listed as Homo sapiens) [compound 129]” the “Target coverage, over-expression category of source gene, STAD (N = 415)” value [1] was “C (>=5% of tumors above the cutoff, but <20%)”.

For “405: peptide found in MMP12 (gene looked up) (NYPKSIHSF; listed as Homo sapiens) [compound 405]”, the “Target coverage, over-expression category of source gene, STAD” value was “B (>=20% of tumors above the cutoff, but <50%)” and the “Target coverage, over-expression category of source gene, TGCT” value was “B (>=20% of tumors above the cutoff, but <50%)”.

In the case of “317: peptide found in SIAH1 (gene looked up) (VFDTSIAQLF; listed as Homo sapiens) [compound 317]”, the “Target coverage, over-expression category of source gene, UVM (N = 80)” value [1] was “C (>=5% of tumors above the cutoff, but <20%)”.

For “164: peptide found in IL4I1 (gene looked up) (HYVPATKVF; listed as Homo sapiens) [compound 164]”, the “Target coverage, over-expression category of source gene, TGCT (N = 156)” value [1] was “A (>=50% of tumors above the cutoff)”, the “Target coverage, over-expression category of source gene, THYM (N = 120)” value [1] was “C (>=5% of tumors above the cutoff, but <20%)” and the “Target coverage, over-expression category of source gene, THCA (N = 513)” value [1] was “C (>=5% of tumors above the cutoff, but <20%)”. The “Target coverage, over-expression category of source gene, UCEC (N = 546)” value [1] was “A (>=50% of tumors above the cutoff)”.

“128: peptide found in PLA2G7 (gene looked up) (VYPFDWQYI; listed as Homo sapiens) [compound 128]” was tested, and the “Target coverage, over-expression category of source gene, TGCT (N = 156)” value [1] was “C (>=5% of tumors above the cutoff, but <20%)”.

In the case of “394: peptide found in FANCI (gene looked up) (FYQPKIQQF; listed as Homo sapiens) [compound 394]”, the “Target coverage, over-expression category of source gene, SARC” value was “B (>=20% of tumors above the cutoff, but <50%)”, the “Target coverage, over-expression category of source gene, SKCM” value was “B (>=20% of tumors above the cutoff, but <50%)” and the “Target coverage, over-expression category of source gene, STAD” value was “B (>=20% of tumors above the cutoff, but <50%)”. The “Target coverage, over-expression category of source gene, TGCT” value was “A (>=50% of tumors above the cutoff)”, the “Target coverage, over-expression category of source gene, THYM” value was “A (>=50% of tumors above the cutoff)” and the “Target coverage, over-expression category of source gene, UCS” value was “B (>=20% of tumors above the cutoff, but <50%)”. For the same substance, the “Target coverage, over-expression category of source gene, UCEC” value was “B (>=20% of tumors above the cutoff, but <50%)”.

Expression grades refer to the transcript from which the peptide derives; gene names, where given, were looked up from the sequence.
